Results from the supplement of paper PMC8728848.
This is one part of the list.

Experiments:
Test in all cases: glycan array binding signal (z-score within array); higher = stronger binding
Conditions in all cases: glycan notation: IUPAC condensed, linker removed
[1] = molecular target: Man(a1-2)Man(a1-3)[Man(a1-2)Man(a1-6)]Man(a1-6)[Man(a1-2)Man(a1-2)Man(a1-3)]Man
Method in brief: (§1)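 Glycan array data were curated from 3228 arrays in the Consortium for Functional Glycomics database and kept only where the protein sequence was available. Glycan names were converted to IUPAC-condensed notation, and columns mapping to the same glycan were averaged. The binding signal is a within-array Z-score, averaged across arrays of the same protein sequence at different concentrations or buffers and across linkers. Negative Z-scores can be read as non-binding.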

[2] = molecular target: Man(a1-2)Man(a1-3)[Man(a1-2)Man(a1-6)]Man(a1-6)[Man(a1-2)Man(a1-2)Man(a1-3)]Man(b1-4)GlcNAc(b1-4)GlcNAc
Method in brief: as §1

[3] = molecular target: Man(a1-2)Man(a1-3)[Man(a1-6)]Man(a1-6)[Man(a1-2)Man(a1-3)]Man(b1-4)GlcNAc(b1-4)GlcNAc
Method in brief: as §1

[4] = molecular target: Man(a1-2)Man(a1-6)[Man(a1-3)]Man(a1-6)[Man(a1-2)Man(a1-2)Man(a1-3)]Man
Method in brief: as §1

[5] = molecular target: Man(a1-2)Man(a1-6)[Man(a1-3)]Man(a1-6)[Man(a1-2)Man(a1-2)Man(a1-3)]Man(b1-4)GlcNAc(b1-4)GlcNAc
Method in brief: as §1

[6] = molecular target: Man(a1-3)[Man(a1-6)]Man
Method in brief: as §1

[7] = molecular target: Man(a1-3)[Man(a1-6)]Man(a1-6)[Man(a1-2)Man(a1-3)]Man(b1-4)GlcNAc(b1-4)GlcNAc
Method in brief: as §1

[8] = molecular target: Man(a1-3)[Man(a1-6)]Man(a1-6)[Man(a1-3)]Man
Method in brief: as §1

[9] = molecular target: Man(a1-3)[Man(a1-6)]Man(a1-6)[Man(a1-3)]Man(b1-4)GlcNAc(b1-4)GlcNAc
Method in brief: as §1

[10] = molecular target: Man(a1-3)[Man(a1-6)]Man(b1-4)GlcNAc(b1-4)GlcNAc
Method in brief: as §1

[11] = molecular target: Man(a1-3)[Man(a1-6)]Man(b1-4)GlcNAc(b1-4)[Fuc(a1-6)]GlcNAc
Method in brief: as §1

[12] = molecular target: Man(a1-6)Man
Method in brief: as §1

[13] = molecular target: Man(b1-4)GlcNAc
Method in brief: as §1

[14] = molecular target: MurNAc(b1-4)GlcNAc
Method in brief: as §1

[15] = molecular target: Neu5Ac(a2-3)Gal
Method in brief: as §1

[16] = molecular target: Neu5Ac(a2-3)Gal(b1-3)GalNAc
Method in brief: as §1

[17] = molecular target: Neu5Ac(a2-3)Gal(b1-3)GalNAc(b1-3)Gal(a1-4)Gal(b1-4)Glc
Method in brief: as §1

[18] = molecular target: Neu5Ac(a2-3)Gal(b1-3)GalNAc(b1-4)Gal(b1-4)Glc
Method in brief: as §1

[19] = molecular target: Neu5Ac(a2-3)Gal(b1-3)GalNAc(b1-4)[Neu5Ac(a2-3)]Gal(b1-4)Glc
Method in brief: as §1

[20] = molecular target: Neu5Ac(a2-3)Gal(b1-3)GalNAc(b1-4)[Neu5Ac(a2-8)Neu5Ac(a2-3)]Gal(b1-4)Glc
Method in brief: as §1

[21] = molecular target: Neu5Ac(a2-3)Gal(b1-3)GalNAc6S
Method in brief: as §1

[22] = molecular target: Neu5Ac(a2-3)Gal(b1-3)GlcNAc
Method in brief: as §1

[23] = molecular target: Neu5Ac(a2-3)Gal(b1-3)GlcNAc(b1-2)Man
Method in brief: as §1

[24] = molecular target: Neu5Ac(a2-3)Gal(b1-3)GlcNAc(b1-2)Man(a1-3)[GlcNAc(b1-4)][Neu5Ac(a2-3)Gal(b1-3)GlcNAc(b1-2)Man(a1-6)]Man(b1-4)GlcNAc(b1-4)GlcNAc
Method in brief: as §1

[25] = molecular target: Neu5Ac(a2-3)Gal(b1-3)GlcNAc(b1-2)Man(a1-3)[Neu5Ac(a2-3)Gal(b1-3)GlcNAc(b1-2)Man(a1-6)]Man(b1-4)GlcNAc(b1-4)GlcNAc
Method in brief: as §1

[26] = molecular target: Neu5Ac(a2-3)Gal(b1-3)GlcNAc(b1-2)[Neu5Ac(a2-3)Gal(b1-3)GlcNAc(b1-4)]Man(a1-6)[Neu5Ac(a2-3)Gal(b1-3)GlcNAc(b1-2)Man(a1-3)]Man(b1-4)GlcNAc(b1-4)GlcNAc
Method in brief: as §1

[27] = molecular target: Neu5Ac(a2-3)Gal(b1-3)GlcNAc(b1-3)Gal(b1-3)GlcNAc
Method in brief: as §1

[28] = molecular target: Neu5Ac(a2-3)Gal(b1-3)GlcNAc(b1-3)Gal(b1-4)GlcNAc
Method in brief: as §1

[29] = molecular target: Neu5Ac(a2-3)Gal(b1-3)GlcNAc(b1-3)GalNAc
Method in brief: as §1

[30] = molecular target: Neu5Ac(a2-3)Gal(b1-3)GlcNAc(b1-6)GalNAc
Method in brief: as §1

[31] = molecular target: Neu5Ac(a2-3)Gal(b1-3)GlcNAc6S
Method in brief: as §1

[32] = molecular target: Neu5Ac(a2-3)Gal(b1-3)[Fuc(a1-4)]GlcNAc
Method in brief: as §1

[33] = molecular target: Neu5Ac(a2-3)Gal(b1-3)[Fuc(a1-4)]GlcNAc(b1-3)Gal(b1-3)[Fuc(a1-4)]GlcNAc
Method in brief: as §1

[34] = molecular target: Neu5Ac(a2-3)Gal(b1-3)[Fuc(a1-4)]GlcNAc(b1-3)Gal(b1-4)[Fuc(a1-3)]GlcNAc
Method in brief: as §1

[35] = molecular target: Neu5Ac(a2-3)Gal(b1-3)[GlcNAc(b1-6)]GalNAc
Method in brief: as §1

[36] = molecular target: Neu5Ac(a2-3)Gal(b1-3)[Neu5Ac(a2-6)]GalNAc
Method in brief: as §1

[37] = molecular target: Neu5Ac(a2-3)Gal(b1-3)[Neu5Ac(a2-6)]GlcNAc(b1-3)[Fuc(a1-3)[Gal(b1-4)]GlcNAc(b1-6)]Gal(b1-4)Glc
Method in brief: as §1

B1: Mnn9-2N3 (Aspergillus fumigatus) (protein)
chain: MAVARRMRRTNPITLLLAAILAIGFFIFVLSPSTTSASPVKAGSASSSSTSQQRREDNAAENPLSPPTKPFFKSQPVRHDGQQAPPPVVQYNLNQLSSTSTSAANGERILILTPMARFVPEYWDNVVKLTYPHELISIGFIIPKNKEGNAALAALEAAIAKTQSGPIDKRFASISILRQDFEPPLQSQDEKERHKISNQKARRESMSRARNSLLFTTLGPATAWVLWLDADIVETPPTLIQDLTAHDHPVLVPNCYQRYYNSEKKKMDVRPYDYNSWIDSSTAQSMAAEMGPDEILLEGYAEMPTYRTLMAHLADTANPNPKKVIELDGVGGTALMVKAEVHRDGAMFPAFPFYHLVETEGFAKMAKRLGYSVYGLPDYFVSRNFFFFFFFFFFG
- glycan array binding signal (z-score) [1]: -0.138
- glycan array binding signal (z-score) [2]: -0.558
- glycan array binding signal (z-score) [3]: 0.461
- glycan array binding signal (z-score) [4]: -0.105
- glycan array binding signal (z-score) [5]: -0.789
- glycan array binding signal (z-score) [6]: -0.193
- glycan array binding signal (z-score) [7]: -0.909
- glycan array binding signal (z-score) [8]: -0.366
- glycan array binding signal (z-score) [9]: -0.772
- glycan array binding signal (z-score) [10]: 1.38
- glycan array binding signal (z-score) [11]: 1.45
- glycan array binding signal (z-score) [12]: -0.653
- glycan array binding signal (z-score) [13]: -0.466
- glycan array binding signal (z-score) [14]: -0.221
- glycan array binding signal (z-score) [15]: 0.285
- glycan array binding signal (z-score) [16]: 0.224
- glycan array binding signal (z-score) [17]: 0.073
- glycan array binding signal (z-score) [18]: 0.754
- glycan array binding signal (z-score) [19]: -0.093
- glycan array binding signal (z-score) [20]: -0.461
- glycan array binding signal (z-score) [21]: 2.97
- glycan array binding signal (z-score) [22]: -0.717
- glycan array binding signal (z-score) [23]: -0.11
- glycan array binding signal (z-score) [24]: -0.106
- glycan array binding signal (z-score) [25]: 2.36
- glycan array binding signal (z-score) [26]: 1.94
- glycan array binding signal (z-score) [27]: -0.229
- glycan array binding signal (z-score) [28]: 0.065
- glycan array binding signal (z-score) [29]: -0.456
- glycan array binding signal (z-score) [30]: -0.673
- glycan array binding signal (z-score) [31]: -0.204
- glycan array binding signal (z-score) [32]: 0.364
- glycan array binding signal (z-score) [33]: 0.057
- glycan array binding signal (z-score) [34]: 0.089
- glycan array binding signal (z-score) [35]: -0.425
- glycan array binding signal (z-score) [36]: 2.13
- glycan array binding signal (z-score) [37]: -0.453
